In article PMC8990461 one finds binding data, which are given here for four substances.

Sequences of proteins named here, by UniProt entry; tags and fusion partners are left off.
UniProt P35579: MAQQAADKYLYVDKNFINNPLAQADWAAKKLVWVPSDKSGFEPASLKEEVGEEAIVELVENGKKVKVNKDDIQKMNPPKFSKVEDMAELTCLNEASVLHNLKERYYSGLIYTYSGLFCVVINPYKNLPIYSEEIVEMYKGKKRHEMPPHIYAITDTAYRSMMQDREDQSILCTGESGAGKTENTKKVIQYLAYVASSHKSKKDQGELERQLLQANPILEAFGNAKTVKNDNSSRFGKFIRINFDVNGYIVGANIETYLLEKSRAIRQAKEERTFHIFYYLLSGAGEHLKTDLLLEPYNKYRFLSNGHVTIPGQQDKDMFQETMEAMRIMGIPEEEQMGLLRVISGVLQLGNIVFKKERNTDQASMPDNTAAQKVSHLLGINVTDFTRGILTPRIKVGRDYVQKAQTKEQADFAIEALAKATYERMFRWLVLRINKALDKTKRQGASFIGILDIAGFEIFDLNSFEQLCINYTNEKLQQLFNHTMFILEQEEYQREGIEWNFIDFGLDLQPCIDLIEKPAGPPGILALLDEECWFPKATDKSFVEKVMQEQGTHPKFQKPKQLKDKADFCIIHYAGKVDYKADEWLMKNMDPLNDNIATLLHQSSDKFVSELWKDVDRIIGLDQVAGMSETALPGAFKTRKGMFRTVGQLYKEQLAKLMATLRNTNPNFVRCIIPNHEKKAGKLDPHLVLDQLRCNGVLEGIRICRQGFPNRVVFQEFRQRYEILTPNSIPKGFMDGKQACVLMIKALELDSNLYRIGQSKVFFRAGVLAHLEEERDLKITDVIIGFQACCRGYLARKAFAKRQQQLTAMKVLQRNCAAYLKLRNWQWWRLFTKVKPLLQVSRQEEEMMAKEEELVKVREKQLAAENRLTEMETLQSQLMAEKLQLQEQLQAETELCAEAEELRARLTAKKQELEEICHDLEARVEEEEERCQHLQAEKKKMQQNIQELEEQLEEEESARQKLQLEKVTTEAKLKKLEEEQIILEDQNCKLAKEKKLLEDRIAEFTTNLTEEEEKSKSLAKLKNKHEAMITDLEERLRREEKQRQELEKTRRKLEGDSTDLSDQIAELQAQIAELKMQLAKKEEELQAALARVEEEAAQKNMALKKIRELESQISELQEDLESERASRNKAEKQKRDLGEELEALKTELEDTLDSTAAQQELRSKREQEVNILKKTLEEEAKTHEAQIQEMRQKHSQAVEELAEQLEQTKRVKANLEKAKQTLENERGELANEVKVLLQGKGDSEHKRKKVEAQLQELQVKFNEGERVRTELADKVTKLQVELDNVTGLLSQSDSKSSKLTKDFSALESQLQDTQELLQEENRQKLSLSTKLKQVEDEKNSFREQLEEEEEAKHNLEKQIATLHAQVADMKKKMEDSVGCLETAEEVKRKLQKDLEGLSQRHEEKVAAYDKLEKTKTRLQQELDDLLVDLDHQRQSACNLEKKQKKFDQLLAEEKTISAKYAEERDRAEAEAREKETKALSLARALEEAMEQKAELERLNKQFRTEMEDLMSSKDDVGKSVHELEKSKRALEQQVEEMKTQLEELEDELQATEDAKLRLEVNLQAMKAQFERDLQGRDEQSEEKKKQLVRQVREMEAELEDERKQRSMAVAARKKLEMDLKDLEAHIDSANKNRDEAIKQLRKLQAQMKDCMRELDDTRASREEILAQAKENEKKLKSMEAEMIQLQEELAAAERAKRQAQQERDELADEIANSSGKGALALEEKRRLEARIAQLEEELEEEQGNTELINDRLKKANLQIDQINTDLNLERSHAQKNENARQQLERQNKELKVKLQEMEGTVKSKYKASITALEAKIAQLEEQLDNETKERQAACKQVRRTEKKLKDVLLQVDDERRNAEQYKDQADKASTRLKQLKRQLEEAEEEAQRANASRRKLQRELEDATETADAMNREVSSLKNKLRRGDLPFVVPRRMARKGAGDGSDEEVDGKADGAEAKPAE
UniProt Q93009: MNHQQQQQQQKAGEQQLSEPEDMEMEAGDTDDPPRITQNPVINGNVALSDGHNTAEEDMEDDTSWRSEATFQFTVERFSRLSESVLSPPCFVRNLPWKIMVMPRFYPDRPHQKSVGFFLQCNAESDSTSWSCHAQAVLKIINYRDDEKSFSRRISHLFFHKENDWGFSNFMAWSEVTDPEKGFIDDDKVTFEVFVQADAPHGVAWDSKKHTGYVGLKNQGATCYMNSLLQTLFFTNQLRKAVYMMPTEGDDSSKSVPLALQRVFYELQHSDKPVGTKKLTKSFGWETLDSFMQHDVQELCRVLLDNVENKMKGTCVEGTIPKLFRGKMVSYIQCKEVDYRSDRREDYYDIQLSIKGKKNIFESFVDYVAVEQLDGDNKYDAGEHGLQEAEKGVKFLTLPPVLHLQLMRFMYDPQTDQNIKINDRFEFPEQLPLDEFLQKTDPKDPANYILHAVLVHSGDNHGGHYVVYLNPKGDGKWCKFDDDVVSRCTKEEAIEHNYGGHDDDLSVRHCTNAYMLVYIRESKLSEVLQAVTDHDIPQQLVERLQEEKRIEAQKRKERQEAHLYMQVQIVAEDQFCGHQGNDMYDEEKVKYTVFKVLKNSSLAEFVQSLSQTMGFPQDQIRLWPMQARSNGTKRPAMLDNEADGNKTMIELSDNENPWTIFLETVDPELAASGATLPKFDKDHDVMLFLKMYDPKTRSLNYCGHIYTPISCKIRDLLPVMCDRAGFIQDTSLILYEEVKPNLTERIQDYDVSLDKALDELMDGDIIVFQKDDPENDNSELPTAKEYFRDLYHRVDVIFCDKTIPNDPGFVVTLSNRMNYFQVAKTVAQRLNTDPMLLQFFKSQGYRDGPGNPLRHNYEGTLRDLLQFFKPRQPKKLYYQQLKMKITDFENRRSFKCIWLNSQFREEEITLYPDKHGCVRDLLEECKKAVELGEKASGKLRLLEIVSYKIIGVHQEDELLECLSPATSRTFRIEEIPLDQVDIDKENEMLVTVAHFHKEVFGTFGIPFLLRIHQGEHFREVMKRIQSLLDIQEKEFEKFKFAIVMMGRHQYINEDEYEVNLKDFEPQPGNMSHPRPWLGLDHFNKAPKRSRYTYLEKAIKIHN
UniProt P01106: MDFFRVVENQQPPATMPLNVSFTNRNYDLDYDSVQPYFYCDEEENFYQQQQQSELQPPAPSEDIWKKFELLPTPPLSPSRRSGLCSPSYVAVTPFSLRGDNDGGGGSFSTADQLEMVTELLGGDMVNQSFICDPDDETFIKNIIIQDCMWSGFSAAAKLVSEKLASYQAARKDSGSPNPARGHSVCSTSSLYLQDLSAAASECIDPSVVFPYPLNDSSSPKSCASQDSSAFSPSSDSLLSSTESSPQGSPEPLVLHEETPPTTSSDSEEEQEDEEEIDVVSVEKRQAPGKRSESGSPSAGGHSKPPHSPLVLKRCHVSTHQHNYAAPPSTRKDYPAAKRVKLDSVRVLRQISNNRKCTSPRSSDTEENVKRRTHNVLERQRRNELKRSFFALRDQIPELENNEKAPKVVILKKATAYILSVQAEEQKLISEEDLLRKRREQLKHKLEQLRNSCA
UniProt P35222: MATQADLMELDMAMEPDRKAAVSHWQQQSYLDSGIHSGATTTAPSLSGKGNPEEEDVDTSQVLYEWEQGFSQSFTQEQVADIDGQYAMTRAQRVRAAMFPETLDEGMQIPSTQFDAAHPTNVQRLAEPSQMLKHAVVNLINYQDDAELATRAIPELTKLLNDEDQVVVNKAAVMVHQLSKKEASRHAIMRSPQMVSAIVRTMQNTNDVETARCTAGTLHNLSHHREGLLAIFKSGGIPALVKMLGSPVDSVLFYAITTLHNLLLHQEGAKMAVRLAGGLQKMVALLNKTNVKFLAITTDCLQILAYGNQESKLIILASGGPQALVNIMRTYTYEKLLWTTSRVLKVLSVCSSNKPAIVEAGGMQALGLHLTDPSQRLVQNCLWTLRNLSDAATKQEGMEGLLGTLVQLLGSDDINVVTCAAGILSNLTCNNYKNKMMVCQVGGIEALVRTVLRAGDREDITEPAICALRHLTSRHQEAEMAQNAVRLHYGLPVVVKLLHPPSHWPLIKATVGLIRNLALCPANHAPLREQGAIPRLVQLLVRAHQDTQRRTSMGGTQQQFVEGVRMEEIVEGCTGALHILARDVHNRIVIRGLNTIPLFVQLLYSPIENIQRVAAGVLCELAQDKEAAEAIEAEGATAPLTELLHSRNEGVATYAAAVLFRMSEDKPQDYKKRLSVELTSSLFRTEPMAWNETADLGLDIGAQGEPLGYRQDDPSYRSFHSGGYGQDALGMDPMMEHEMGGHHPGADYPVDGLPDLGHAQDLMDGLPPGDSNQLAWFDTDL

No constants are given. Whether binding was seen depends on the method and setting. Binding seen in cells or lysates may run through a third protein. Some results given as binding are weak or reduced against the parent protein; the word gives no strength.

Holding throughout (experiment): co-IP; Pierce Co-Immunoprecipitation kit; 5 mg protein of HCC cell lysate with 10 µg antibody or IgG (negative control), 4 °C overnight; eluate read by Western blot
In general terms: A western blot detects proteins with antibodies after separation by electrophoresis.

Test [1] addresses T1, ENKUR (Enkurin), overexpressed in HCC cells (UniProt Q8TC29).
T1 sequence: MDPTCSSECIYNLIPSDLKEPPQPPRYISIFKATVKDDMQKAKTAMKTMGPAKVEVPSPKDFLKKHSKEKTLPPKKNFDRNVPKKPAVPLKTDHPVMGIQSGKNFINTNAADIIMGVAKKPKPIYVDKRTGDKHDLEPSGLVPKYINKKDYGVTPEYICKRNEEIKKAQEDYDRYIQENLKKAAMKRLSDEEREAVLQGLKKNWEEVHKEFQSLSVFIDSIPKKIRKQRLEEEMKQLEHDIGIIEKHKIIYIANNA

A further test addresses T2, Enkurin domain of ENKUR (UniProt Q8TC29).
T2 sequence: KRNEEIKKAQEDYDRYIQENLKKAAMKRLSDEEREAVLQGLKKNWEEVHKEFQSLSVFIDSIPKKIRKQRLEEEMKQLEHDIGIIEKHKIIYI

Test [2] has as its target MYH9 (myosin IIA heavy chain) (human (endogenous in LM3 and 7721)) (UniProt P35579).

With “MYH9 (myosin IIA heavy chain) (from UniProt P35579 1-1960)”, the binding result (in test [1]; with Enkurin domain of ENKUR) was “binds” throughout. Take “USP7 (from UniProt Q93009 1-1102) (enzyme)”: the binding result in test [2] is reported as “binds”. In the case of c-Myc (from UniProt P01106 1-454), the binding entry in test [2] was “binds”. Take β-catenin (from UniProt P35222 1-781): the binding entry (in test [1]; with Enkurin domain of ENKUR) was “binds” in each case.
